Reference: PubChem BioAssay AID1508588 (Peter MacCallum Cancer Centre, 2020)

Aim: 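Knock-downs boosting vemurafenib effects on melanoma cell growth or lactate release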 (primary screen)
System: human WM266.4 melanoma cells (BRAF V600 mutant)
Reagents: siRNA pool against human genes, 40 nM
Timing: 96 h from transfection to read-out
Challenge: vemurafenib 300 nM (about IC25), added 48 h after transfection, for 48 h; comparison arm got DMSO vehicle only
Detection: 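Cell gain (DAPI nuclei at end minus before drug, mean of two replicates) and medium lactate by absorbance per cell, both as ratio to non-targeting siRNA, also grouped into fold-change classes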
Direction: cell gain with vemurafenib: higher = more cell gain than with non-targeting siRNA; lactate per cell with vemurafenib: higher = more lactate made per cell
Rule for the call: 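a knock-down counts as enhancing when its fold-change classes with vehicle and with vemurafenib, taken together, show a stronger drug effect on cell gain or lactate per cell; exact class pairs not stated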
Calls: active = enhances vemurafenib effect; inactive = no enhancement seen
Shown is one part, drawn at random, of about 18,000 deposited reagents. 790 of them (4.4%) were called active. 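Calls rest on a combination of fold-change classes in drug and vehicle arms, not all shown here.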

no.	gene	cell gain with vemurafenib	lactate per cell with vemurafenib	outcome
1	APC	0.87	0.5	inactive
2	SSH1	0.61	0.74	inactive
3	SCGB3A2	0.7	0.43	inactive
4	CETN2	0.74	0.86	inactive
5	AGAP2	0.49	0.96	inactive
6	TRIM40	1.01	0.78	inactive
7	ZNF284	0.73	1.48	inactive
8	PCDHAC2	0.46	1.75	inactive
9	KIF4A	0.08	2.58	inactive
10	SPTBN2	0.74	0.31	inactive
11	PTGR2	0.78	1.23	inactive
12	PICALM	1	0.61	inactive
13	TPCN2	1.18	1.08	inactive
14	CCL14	0.51	1.16	inactive
15	ATP6AP1L	0.01	0.4	active
16	LMNTD1	0.52	0.88	inactive
17	TMEM31	1.11	0.36	inactive
18	HARBI1	0.77	1.4	inactive
19	ICOSLG	0.75	0.75	inactive
20	EID3	0.35	1.44	inactive
21	TMEM183A	0.37	1.17	inactive
22	LRRC8E	0.63	1.8	inactive
23	PRR5	0.87	0.88	inactive
24	PRPF8	0.01	2.69	inactive
25	PROX2	0.77	0.17	active
26	ZNF875	1.25	0.49	inactive
27	EVI5L	0.89	0.39	inactive
28	LRRC49	1.59	0.88	inactive
29	NUP62	0.27	2	inactive
30	PCIF1	0.16	1.4	active
31	TIRAP	0.92	0.62	inactive
32	CASP4	0.74	0.56	inactive
33	CUL3	0.5	2.02	inactive
34	EIF4G1	0	2.14	inactive

Sorted by “lactate per cell with vemurafenib” (highest first): 5 of the entries above.
gene	cell gain with vemurafenib	lactate per cell with vemurafenib	outcome
PRPF8	0.01	2.69	inactive
PRR5	0.87	0.88	inactive
ZNF875	1.25	0.49	inactive
EVI5L	0.89	0.39	inactive
PROX2	0.77	0.17	active
